Laboratory results: PubChem BioAssay AID1259254 (NCATS, 2017)
This is an unselected part of about 59,000 deposited reagents. Over the whole deposit, about 1,550 (2.6%) are marked active. 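G2 share is only a proxy for re-replication; each gene was hit by three separate siRNAs, and active genes were retested.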 Unmarked entries are inactive. The numbers tell different reagents against one gene apart. Further read-outs or replicates are left out here. The record does not give: the amount of reagent.

- Assay: 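Genome-wide screen for genes that prevent DNA re-replication in cancer cells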 (primary screen)
- Cell system: human HCT116 colorectal cancer cells
- Reagents: single siRNA against human genes
- Duration: 3 days
- Read-out: 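Nuclei stained with Hoechst and imaged; cell-cycle phase assigned by DNA content; G2 share scaled per plate, non-targeting siRNA 0%, GMNN siRNA 100%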
- Direction: G2 robust z-score: higher = more G2 cells, more excess DNA replication
- Active means: 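Active siRNAs have a G2 robust z of 5 or more median absolute deviations over the median, which in these data means about 38% or higher of GMNN control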

Target gene	reagent no.	G2 robust z-score
ARMCX5 (armadillo repeat containing X-linked 5)	1	-0.319
ARMCX5 (armadillo repeat containing X-linked 5)	2	-0.721
ARMCX5 (armadillo repeat containing X-linked 5)	3	0.139
HASPIN (histone H3 associated protein kinase)	1	1.41
HASPIN (histone H3 associated protein kinase)	2	-0.522
HASPIN (histone H3 associated protein kinase)	3	-0.0439
H1-4 (H1.4 linker histone, cluster member)	1	-1.06
H1-4 (H1.4 linker histone, cluster member)	2	-0.643
H1-4 (H1.4 linker histone, cluster member)	3	-0.34
SLC1A6	1	-0.823
SLC1A6	2	-0.49
SLC1A6	3	-0.786
TMEM150B (transmembrane protein 150B)	1	-1.2
TMEM150B (transmembrane protein 150B)	2	-0.147
TMEM150B (transmembrane protein 150B)	3	-0.345
CELA3A (chymotrypsin like elastase 3A)	1	4.54
CELA3A (chymotrypsin like elastase 3A)	2	2.81
CELA3A (chymotrypsin like elastase 3A)	3	-0.261
CHRFAM7A (CHRNA7 (exons 5-10) and FAM7A (exons A-E) fusion)	1	-0.292
CHRFAM7A (CHRNA7 (exons 5-10) and FAM7A (exons A-E) fusion)	2	2.37
CHRFAM7A (CHRNA7 (exons 5-10) and FAM7A (exons A-E) fusion)	3	-0.35
TRIM60 (tripartite motif containing 60)	1	-0.0684
TRIM60 (tripartite motif containing 60)	2	0.0401
TRIM60 (tripartite motif containing 60)	3	0.549
KISS1 (KiSS-1 metastasis suppressor)	1	1.01
KISS1 (KiSS-1 metastasis suppressor)	2	0.437
KISS1 (KiSS-1 metastasis suppressor)	3	3.52
C11orf86 (chromosome 11 open reading frame 86)	1	0.778
C11orf86 (chromosome 11 open reading frame 86)	2	-0.213
C11orf86 (chromosome 11 open reading frame 86)	3	0.198
C1QB (complement C1q B chain)	1	0.736
C1QB (complement C1q B chain)	2	-1.09
C1QB (complement C1q B chain)	3	3.24
RANBP10 (RAN binding protein 10)	1	0.151
RANBP10 (RAN binding protein 10)	2	-0.931
RANBP10 (RAN binding protein 10)	3	0.285
FSCN3 (fascin actin-bundling protein 3)	1	-0.0518
FSCN3 (fascin actin-bundling protein 3)	2	-0.134
FSCN3 (fascin actin-bundling protein 3)	3	0.118

Targets above whose target name starts with T or t (6):
Target gene	reagent no.	G2 robust z-score
TMEM150B (transmembrane protein 150B)	1	-1.2
TMEM150B (transmembrane protein 150B)	2	-0.147
TMEM150B (transmembrane protein 150B)	3	-0.345
TRIM60 (tripartite motif containing 60)	1	-0.0684
TRIM60 (tripartite motif containing 60)	2	0.0401
TRIM60 (tripartite motif containing 60)	3	0.549

Next entries:
Target gene	reagent no.	G2 robust z-score
ZFYVE16 (zinc finger FYVE-type containing 16)	1	0.0926
ZFYVE16 (zinc finger FYVE-type containing 16)	2	-1.02
ZFYVE16 (zinc finger FYVE-type containing 16)	3	0.688
RGS19 (regulator of G protein signaling 19)	1	-0.506
RGS19 (regulator of G protein signaling 19)	2	-0.522
RGS19 (regulator of G protein signaling 19)	3	-1
LTB (lymphotoxin beta)	1	0.0934
LTB (lymphotoxin beta)	2	1.93
LTB (lymphotoxin beta)	3	-0.815
CNTN2 (contactin 2)	1	-1.52
CNTN2 (contactin 2)	2	3.35
CNTN2 (contactin 2)	3	-0.991
ABCA13 (ATP binding cassette subfamily A member 13)	1	1.93
ABCA13 (ATP binding cassette subfamily A member 13)	2	-0.147
ABCA13 (ATP binding cassette subfamily A member 13)	3	1.75
SLC39A7	1	2.54
SLC39A7	2	6.32 (active)
SLC39A7	3	0.289
EIF4EBP1	1	-0.696
EIF4EBP1	2	-0.822
EIF4EBP1	3	-0.652
SLC2A9	1	0.049
SLC2A9	2	-1.61
SLC2A9	3	-0.376
DMC1 (DNA meiotic recombinase 1)	1	-1.09
DMC1 (DNA meiotic recombinase 1)	2	6.58 (active)
DMC1 (DNA meiotic recombinase 1)	3	0.137
MARS2 (methionyl-tRNA synthetase 2, mitochondrial)	1	0.305
MARS2 (methionyl-tRNA synthetase 2, mitochondrial)	2	-0.0453
MARS2 (methionyl-tRNA synthetase 2, mitochondrial)	3	-0.37
CLEC4F (C-type lectin domain family 4 member F)	1	0.221
CLEC4F (C-type lectin domain family 4 member F)	2	-0.515
CLEC4F (C-type lectin domain family 4 member F)	3	4.13
UBAP2 (ubiquitin associated protein 2)	1	-0.085
UBAP2 (ubiquitin associated protein 2)	2	3.84
UBAP2 (ubiquitin associated protein 2)	3	5.06 (active)
IPO5 (importin 5)	1	-0.564
IPO5 (importin 5)	2	0.563
IPO5 (importin 5)	3	0.408
NOTCH4 (notch receptor 4)	1	-0.647
NOTCH4 (notch receptor 4)	2	0.5
NOTCH4 (notch receptor 4)	3	4.24
DEF8 (differentially expressed in FDCP 8 homolog)	1	0.112
DEF8 (differentially expressed in FDCP 8 homolog)	2	4.07
DEF8 (differentially expressed in FDCP 8 homolog)	3	-0.241
MYL12BP3 (MYL12B pseudogene 3)	1	2.12
MYL12BP3 (MYL12B pseudogene 3)	2	0.0387
MYL12BP3 (MYL12B pseudogene 3)	3	-0.648
